## Results from one PubChem assay

Source: PubChem BioAssay AID1053133 (Broad Institute, 2014).

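Vaccinia-infected cells with a two-color viral stage reporter; Venus fluorescence read on a plate reader; the cell line is not named here; timing not stated here.
The test concentration is not given here.
Percent change in Venus reporter signal; lower (more negative) values mean stronger inhibition of that viral stage.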

Values are in %.
The controls that fix the scale are not given here.
Common to all entries: measured here: Venus reporter, other viral stage.
Part of the compounds only, not a random draw; the main read-out is not listed here.

| # | SMILES | activity change (Venus) (%) |
|---|---|---|
| 1 | `CCCNC(=O)N1[C@H](CO)[C@@H](c2ccccc2C2=CCCC2)[C@@H]1C#N` | -28.29 |
| 2 | `O=C(Cc1ccccc1)N1CC(=O)N2[C@H](C1)[C@@H](c1ccc(-c3ccc(F)cc3)cc1)[C@@H]2CO` | -35.45 |
| 3 | `C[C@@H]1CN([C@@H](C)CO)C(=O)c2cc(C#Cc3cccc(F)c3)cnc2O[C@H]1CN(C)C(=O)C1CCC1` | -39.21 |
| 4 | `CCCN(C)C[C@H]1Oc2ncc(C#CCC(C)C)cc2C(=O)N([C@H](C)CO)C[C@@H]1C` | -34.04 |
| 5 | `COc1ccccc1NC(=O)N1CCCCN2[C@H](CO)[C@@H](c3ccc(C#CC4CCCC4)cc3)[C@H]2C1` | -36.04 |
| 6 | `COc1cccc(S(=O)(=O)N(C)C[C@@H]2Oc3ncc(C#Cc4ccccc4)cc3C(=O)N([C@H](C)CO)C[C@@H]2C)c1` | -35.4 |
| 7 | `C[C@H](CO)N1C[C@H](C)[C@H](CN(C)C(=O)c2cnccn2)Oc2cc(C#CCC3CCCC3)ccc2S1(=O)=O` | -27.95 |
| 8 | `COc1ccc(S(=O)(=O)N(C)C[C@H]2Oc3c(NC(=O)Nc4ccc(C(F)(F)F)cc4)cccc3C(=O)N([C@@H](C)CO)C[C@@H]2C)cc1` | -50.58 |
| 9 | `Cc1noc(C)c1NC(=O)N(C)C[C@@H]1Oc2cc(C#CCC3CCCC3)ccc2S(=O)(=O)N([C@@H](C)CO)C[C@@H]1C` | -80.75 |
| 10 | `C/C=C/c1ccc([C@H]2[C@@H](CO)N(CC3CC3)[C@@H]2CNC(=O)c2ccccc2)cc1` | -23.16 |
| 11 | `CN1c2ccc(-c3ccccc3)cc2[C@H]2[C@H](CCN2C(=O)NC2CCCCC2)[C@@H]1CO` | -63.77 |
| 12 | `C[C@@H]1CN([C@H](C)CO)C(=O)Cc2cc(NS(=O)(=O)c3ccc(Cl)cc3)ccc2O[C@H]1CN(C)CC1CCCCC1` | -34.74 |
| 13 | `CC(C)CC#Cc1ccc2c(c1)O[C@@H](CN(C)Cc1cncnc1)[C@H](C)CN([C@@H](C)CO)S2(=O)=O` | -60.79 |
| 14 | `CCCNC(=O)c1cc2c(c(-c3cccc(-c4ccc(F)cc4)c3)n1)[C@@H](CCO)N([S@](=O)C(C)(C)C)C2` | -7.884 |
| 15 | `COc1ccc(NC(=O)Nc2cccc3c2O[C@H](CN(C)C(=O)Nc2ccc(C(F)(F)F)cc2)[C@@H](C)CN([C@H](C)CO)C3=O)cc1` | -31.5 |
| 16 | `COc1ccccc1C#Cc1ccc([C@H]2[C@H]3CN(C(=O)C4CC4)CCCCN3[C@H]2CO)cc1` | -45.01 |
| 17 | `O=C(Nc1ccc(F)cc1)N1CC(=O)N2[C@H](CO)[C@@H](c3ccc(-c4ccccc4)cc3)[C@H]2C1` | -54.43 |
| 18 | `C[C@H](CO)N1C[C@H](C)[C@@H](CN(C)Cc2cccc(F)c2)OCc2ccccc2-c2ccccc2C1=O` | -63.59 |
| 19 | `COc1cccc(S(=O)(=O)Nc2ccc3c(c2)C(=O)N(C)C[C@@H](OC)[C@@H](C)CN(Cc2ccccc2F)[C@H](C)CO3)c1` | -38.24 |
| 20 | `C[C@H]1CN([C@@H](C)CO)C(=O)c2cc(-c3ccc(F)cc3)cnc2O[C@@H]1CN(C)CC1CCCCC1` | -43.58 |
| 21 | `C[C@H]1CN([C@@H](C)CO)C(=O)c2cc(C#CC3CCCCC3)cnc2O[C@@H]1CN(C)C(=O)C1CCCCC1` | -25.76 |
| 22 | `C[C@@H]1CN([C@@H](C)CO)C(=O)Cc2cc(NC(=O)C3CC3)ccc2O[C@@H]1CN(C)Cc1ccc(-c2ccccc2)cc1` | -55 |
| 23 | `O=C(C[C@@H]1CC[C@@H]2[C@H](COC[C@H](O)CN2C(=O)Nc2ccc(Cl)c(Cl)c2)O1)NCc1ccc(Cl)c(Cl)c1` | -72.37 |
| 24 | `COc1ccc(-c2ccc3c(c2)[C@H]2[C@H](CCN2C(=O)C2CC2)[C@@H](CO)N3C)cc1` | -38.19 |
| 25 | `COc1ccc(C#Cc2ccc3c(c2)O[C@@H](CN(C)C(=O)NC2CCCCC2)[C@H](C)CN([C@@H](C)CO)S3(=O)=O)cc1` | -24.7 |
| 26 | `Cc1ccc(S(=O)(=O)Nc2ccc3c(c2)CC(=O)N([C@H](C)CO)C[C@@H](C)[C@@H](CN(C)Cc2ccc(Cl)c(Cl)c2)O3)cc1` | -68.18 |
| 27 | `C[C@H](CO)N1C[C@H](C)[C@@H](CN(C)CC2CCCCC2)Oc2ccc(NC(=O)Cc3ccccc3)cc2CC1=O` | -20.61 |
| 28 | `C[C@H]1CN([C@@H](C)CO)S(=O)(=O)c2ccc(-c3ccccc3F)cc2O[C@@H]1CN(C)Cc1ccncc1` | -53.35 |
| 29 | `C[C@H](CO)N1C[C@H](C)[C@H](CN(C)S(=O)(=O)c2cccs2)OCCCC[C@H](C)Oc2ccc(NC(=O)C3CCCCC3)cc2C1=O` | -33.95 |
| 30 | `O=C(C[C@@H]1C=C[C@H](NC(=O)Nc2ccc(C(F)(F)F)cc2)[C@H](CO)O1)NCc1cc(F)cc(F)c1` | -33.81 |
| 31 | `CCc1cnc(N2[C@H](C#N)[C@H](c3ccc(C#CCC4CCCC4)cc3)[C@H]2CO)s1` | -46.19 |
| 32 | `O=C(c1ccc(F)cc1)N1CC(=O)N2[C@H](CO)[C@H](c3ccc(C#Cc4ccc(F)cc4)cc3)[C@H]2C1` | -79.17 |
| 33 | `O=C(Cc1ccccn1)N1CC(=O)N2[C@H](CO)[C@H](c3ccc(C#CCC4CCCC4)cc3)[C@H]2C1` | -34.91 |
| 34 | `C[C@@H]1CCCCO[C@@H](CN(C)Cc2ccccc2)[C@H](C)CN([C@@H](C)CO)C(=O)c2cc(NC(=O)NC3CCCCC3)ccc2O1` | -51.14 |
| 35 | `C[C@@H]1CCCCO[C@@H](CN(C)CC2CCCCC2)[C@H](C)CN([C@@H](C)CO)C(=O)c2cc(NC(=O)Cc3ccccc3)ccc2O1` | -49.74 |
| 36 | `C[C@@H]1CCCCO[C@H](CN(C)Cc2ccc(C(F)(F)F)cc2)[C@@H](C)CN([C@@H](C)CO)C(=O)c2cc(NC(=O)c3ccccc3)ccc2O1` | -47.11 |
| 37 | `CCCNC(=O)C[C@H]1CC[C@H]2[C@@H](COC[C@@H](O)CN2C(=O)Nc2ccc(Cl)c(Cl)c2)O1` | -18.8 |
| 38 | `O=C(C[C@@H]1CC[C@@H]2[C@H](COC[C@@H](O)CN2C(=O)Nc2ccc(Cl)c(Cl)c2)O1)NCc1ccc(Cl)cc1` | -56.96 |
| 39 | `COc1ccc(-c2ccc3c(c2)O[C@H](CN(C)Cc2cccnc2)[C@H](C)CN([C@@H](C)CO)S3(=O)=O)cc1` | -43.24 |